According to the supplement of paper PMC8728848:
This is one part of the list.

How the values were obtained:
Assay in all cases: glycan array binding signal (z-score within array); higher = stronger binding
Settings in all cases: glycan notation: IUPAC condensed, linker removed
GlcNAc(b1-3)Gal(b1-4)Glc = target: GlcNAc(b1-3)Gal(b1-4)Glc
Method in brief: (§1)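 From the Consortium for Functional Glycomics database, 3228 arrays were curated, keeping only those whose protein sequence was available. Binding is given as a within-array Z-score averaged across arrays sharing a protein sequence and across linkers. Negative Z-scores can be read as non-binding.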

[1] = target: GlcNAc(b1-3)Gal(b1-4)GlcNAc
Method in brief: as §1

[2] = target: GlcNAc(b1-3)Gal(b1-4)GlcNAc(b1-2)Man(a1-3)[GlcNAc(b1-3)Gal(b1-4)GlcNAc(b1-2)Man(a1-6)]Man(b1-4)GlcNAc(b1-4)GlcNAc
Method in brief: as §1

[3] = target: GlcNAc(b1-3)Gal(b1-4)GlcNAc(b1-2)Man(a1-3)[GlcNAc(b1-3)Gal(b1-4)GlcNAc(b1-2)Man(a1-6)]Man(b1-4)GlcNAc(b1-4)[Fuc(a1-6)]GlcNAc
Method in brief: as §1

[4] = target: GlcNAc(b1-3)Gal(b1-4)GlcNAc(b1-2)[GlcNAc(b1-3)Gal(b1-4)GlcNAc(b1-6)]Man(a1-6)[GlcNAc(b1-3)Gal(b1-4)GlcNAc(b1-2)Man(a1-3)]Man(b1-4)GlcNAc(b1-4)GlcNAc
Method in brief: as §1

[5] = target: GlcNAc(b1-3)Gal(b1-4)GlcNAc(b1-3)Gal(b1-4)GlcNAc
Method in brief: as §1

[6] = target: GlcNAc(b1-3)Gal(b1-4)GlcNAc(b1-3)Gal(b1-4)GlcNAc(b1-2)Man(a1-3)[GlcNAc(b1-3)Gal(b1-4)GlcNAc(b1-3)Gal(b1-4)GlcNAc(b1-2)Man(a1-6)]Man(b1-4)GlcNAc(b1-4)GlcNAc
Method in brief: as §1

[7] = target: GlcNAc(b1-3)Gal(b1-4)GlcNAc(b1-3)Gal(b1-4)GlcNAc(b1-2)Man(a1-3)[GlcNAc(b1-3)Gal(b1-4)GlcNAc(b1-3)Gal(b1-4)GlcNAc(b1-2)Man(a1-6)]Man(b1-4)GlcNAc(b1-4)[Fuc(a1-6)]GlcNAc
Method in brief: as §1

[8] = target: GlcNAc(b1-3)Gal(b1-4)GlcNAc(b1-3)Gal(b1-4)GlcNAc(b1-2)[GlcNAc(b1-3)Gal(b1-4)GlcNAc(b1-3)Gal(b1-4)GlcNAc(b1-6)]Man(a1-6)[GlcNAc(b1-3)Gal(b1-4)GlcNAc(b1-3)Gal(b1-4)GlcNAc(b1-2)Man(a1-3)]Man(b1-4)GlcNAc(b1-4)[Fuc(a1-6)]GlcNAc
Method in brief: as §1

[9] = target: GlcNAc(b1-3)Gal(b1-4)GlcNAc(b1-3)Gal(b1-4)GlcNAc(b1-3)Gal(b1-4)GlcNAc(b1-2)Man(a1-3)[GlcNAc(b1-3)Gal(b1-4)GlcNAc(b1-3)Gal(b1-4)GlcNAc(b1-3)Gal(b1-4)GlcNAc(b1-2)Man(a1-6)]Man(b1-4)GlcNAc(b1-4)GlcNAc
Method in brief: as §1

[10] = target: GlcNAc(b1-3)Gal(b1-4)GlcNAc(b1-3)Gal(b1-4)GlcNAc(b1-3)Gal(b1-4)GlcNAc(b1-2)Man(a1-3)[GlcNAc(b1-3)Gal(b1-4)GlcNAc(b1-3)Gal(b1-4)GlcNAc(b1-3)Gal(b1-4)GlcNAc(b1-2)Man(a1-6)]Man(b1-4)GlcNAc(b1-4)[Fuc(a1-6)]GlcNAc
Method in brief: as §1

[11] = target: GlcNAc(b1-3)Gal(b1-4)GlcNAc(b1-3)Gal(b1-4)GlcNAc(b1-3)Gal(b1-4)GlcNAc(b1-2)[GlcNAc(b1-3)Gal(b1-4)GlcNAc(b1-3)Gal(b1-4)GlcNAc(b1-3)Gal(b1-4)GlcNAc(b1-6)]Man(a1-6)[GlcNAc(b1-3)Gal(b1-4)GlcNAc(b1-3)Gal(b1-4)GlcNAc(b1-3)Gal(b1-4)GlcNAc(b1-2)Man(a1-3)]Man(b1-4)GlcNAc(b1-4)[Fuc(a1-6)]GlcNAc
Method in brief: as §1

[12] = target: GlcNAc(b1-3)Gal(b1-4)GlcNAc(b1-3)Gal(b1-4)GlcNAc(b1-3)Gal(b1-4)GlcNAc(b1-3)Gal(b1-4)GlcNAc(b1-2)Man(a1-3)[GlcNAc(b1-3)Gal(b1-4)GlcNAc(b1-3)Gal(b1-4)GlcNAc(b1-3)Gal(b1-4)GlcNAc(b1-3)Gal(b1-4)GlcNAc(b1-2)Man(a1-6)]Man(b1-4)GlcNAc(b1-4)GlcNAc
Method in brief: as §1

[13] = target: GlcNAc(b1-3)Gal(b1-4)GlcNAc(b1-3)Gal(b1-4)GlcNAc(b1-3)Gal(b1-4)GlcNAc(b1-3)Gal(b1-4)GlcNAc(b1-2)Man(a1-3)[GlcNAc(b1-3)Gal(b1-4)GlcNAc(b1-3)Gal(b1-4)GlcNAc(b1-3)Gal(b1-4)GlcNAc(b1-3)Gal(b1-4)GlcNAc(b1-2)Man(a1-6)]Man(b1-4)GlcNAc(b1-4)[Fuc(a1-6)]GlcNAc
Method in brief: as §1

[14] = target: GlcNAc(b1-3)Gal(b1-4)GlcNAc(b1-3)Gal(b1-4)GlcNAc(b1-3)Gal(b1-4)GlcNAc(b1-3)Gal(b1-4)GlcNAc(b1-2)[GlcNAc(b1-3)Gal(b1-4)GlcNAc(b1-3)Gal(b1-4)GlcNAc(b1-3)Gal(b1-4)GlcNAc(b1-3)Gal(b1-4)GlcNAc(b1-6)]Man(a1-6)[GlcNAc(b1-3)Gal(b1-4)GlcNAc(b1-3)Gal(b1-4)GlcNAc(b1-3)Gal(b1-4)GlcNAc(b1-3)Gal(b1-4)GlcNAc(b1-2)Man(a1-3)]Man(b1-4)GlcNAc(b1-4)[Fuc(a1-6)]GlcNAc
Method in brief: as §1

[15] = target: GlcNAc(b1-3)Gal(b1-4)GlcNAc(b1-3)Gal(b1-4)GlcNAc(b1-3)GalNAc
Method in brief: as §1

[16] = target: GlcNAc(b1-3)Gal(b1-4)GlcNAc(b1-3)GalNAc
Method in brief: as §1

[17] = target: GlcNAc(b1-3)Gal(b1-4)GlcNAc(b1-3)[GlcNAc(b1-3)Gal(b1-4)GlcNAc(b1-3)]GalNAc
Method in brief: as §1

[18] = target: GlcNAc(b1-3)Gal(b1-4)GlcNAc(b1-6)[Gal(b1-3)]GalNAc
Method in brief: as §1

[19] = target: GlcNAc(b1-3)Gal(b1-4)GlcNAc(b1-6)[GlcNAc(b1-3)Gal(b1-3)]GalNAc
Method in brief: as §1

[20] = target: GlcNAc(b1-3)Gal(b1-4)GlcNAc(b1-6)[GlcNAc(b1-3)]Gal(b1-4)GlcNAc
Method in brief: as §1

GlcNAc(b1-3)GalNAc = target: GlcNAc(b1-3)GalNAc
Method in brief: as §1

GlcNAc(b1-3)Man = target: GlcNAc(b1-3)Man
Method in brief: as §1

[21] = target: GlcNAc(b1-3)[GlcNAc(b1-4)][GlcNAc(b1-6)]GlcNAc
Method in brief: as §1

[22] = target: GlcNAc(b1-3)[GlcNAc(b1-6)]Gal(b1-4)GlcNAc
Method in brief: as §1

[23] = target: GlcNAc(b1-3)[GlcNAc(b1-6)]GalNAc
Method in brief: as §1

[24] = target: GlcNAc(b1-4)Gal(b1-4)GlcNAc
Method in brief: as §1

GlcNAc(b1-4)GlcNAc = target: GlcNAc(b1-4)GlcNAc
Method in brief: as §1

[25] = target: GlcNAc(b1-4)GlcNAc(b1-4)GlcNAc
Method in brief: as §1

[26] = target: GlcNAc(b1-4)GlcNAc(b1-4)GlcNAc(b1-4)GlcNAc(b1-4)GlcNAc
Method in brief: as §1

[27] = target: GlcNAc(b1-4)GlcNAc(b1-4)GlcNAc(b1-4)GlcNAc(b1-4)GlcNAc(b1-4)GlcNAc
Method in brief: as §1

[28] = target: GlcNAc(b1-4)[GlcNAc(b1-6)]GalNAc
Method in brief: as §1

[29] = target: GlcNAc(b1-6)Gal(b1-4)GlcNAc
Method in brief: as §1

GlcNAc(b1-6)GalNAc = target: GlcNAc(b1-6)GalNAc
Method in brief: as §1

[30] = target: GlcNAc6S(b1-3)Gal(b1-4)GlcNAc
Method in brief: as §1

Kdn(a2-3)Gal(b1-3)GalNAc = target: Kdn(a2-3)Gal(b1-3)GalNAc
Method in brief: as §1

Kdn(a2-3)Gal(b1-3)GlcNAc = target: Kdn(a2-3)Gal(b1-3)GlcNAc
Method in brief: as §1

B1: GS7807Q-bfa-507-19-507 (Bacteroides fragilis) (protein)
chain: ASCNKFDDLNTNPDAATKVTAPMLATKLILNITQQGSAKNFVYHSMLSKQIAWSENASDEQYNLFGRTDFDGYTILTNCQKMVDAANEGDKDSYAALAKFMKAYKLFYKSLEVGDIPYSDALKGEEGVQKPKYDTQKEVMRQVLEDLEEAYTLFSSGSDFDGDPIFGGDTENWKKTVVAFELKVLTHLCKKDTDADLKVKERFARLVSSGSLMTSNADNFQLVYSNKAGQLYPFYYTQNKHSDYLMMSSVIIDNLKKFNDYRMFYYASPAKAQTDKGIKDSEWDAYLSIDPSDSYSNISVLYGKGEFCLANLRYTRVPEGEPLMRLSYAEQNFILAEGAVRGWISEDASTYYKKGIEASMNFIADNTPDKEEYTHGRTITQEYIQEYLAQPVIQLSGDKEKDLEMILLQRYLASFLQHPYDAYYDYRRTGYPVLPINPSTNLNTEKNKIPTRWMYPEAEFSYNPDNANEAVQRQYNGSDDVNKLMWILQ
glycan array binding signal (z-score) (GlcNAc(b1-3)Gal(b1-4)Glc): 0.157 | glycan array binding signal (z-score) [1]: -0.332 | glycan array binding signal (z-score) [2]: -0.076 | glycan array binding signal (z-score) [3]: 2.43 | glycan array binding signal (z-score) [4]: 1.65 | glycan array binding signal (z-score) [5]: -1.04 | glycan array binding signal (z-score) [6]: 1.69 | glycan array binding signal (z-score) [7]: 1.07 | glycan array binding signal (z-score) [8]: 2.73 | glycan array binding signal (z-score) [9]: -0.806 | glycan array binding signal (z-score) [10]: 0.62 | glycan array binding signal (z-score) [11]: 0.11 | glycan array binding signal (z-score) [12]: 1.83 | glycan array binding signal (z-score) [13]: -0.41 | glycan array binding signal (z-score) [14]: 0.964 | glycan array binding signal (z-score) [15]: -0.585 | glycan array binding signal (z-score) [16]: 0.273 | glycan array binding signal (z-score) [17]: -0.737 | glycan array binding signal (z-score) [18]: -0.569 | glycan array binding signal (z-score) [19]: 1.15 | glycan array binding signal (z-score) [20]: 0.947 | glycan array binding signal (z-score) (GlcNAc(b1-3)GalNAc): -0.376 | glycan array binding signal (z-score) (GlcNAc(b1-3)Man): -1.62 | glycan array binding signal (z-score) [21]: -0.667 | glycan array binding signal (z-score) [22]: -0.251 | glycan array binding signal (z-score) [23]: -0.346 | glycan array binding signal (z-score) [24]: -0.737 | glycan array binding signal (z-score) (GlcNAc(b1-4)GlcNAc): -0.323 | glycan array binding signal (z-score) [25]: -0.081 | glycan array binding signal (z-score) [26]: -0.699 | glycan array binding signal (z-score) [27]: -1.34 | glycan array binding signal (z-score) [28]: -0.53 | glycan array binding signal (z-score) [29]: -0.107 | glycan array binding signal (z-score) (GlcNAc(b1-6)GalNAc): -0.934 | glycan array binding signal (z-score) [30]: 0.015 | glycan array binding signal (z-score) (Kdn(a2-3)Gal(b1-3)GalNAc): -0.248 | glycan array binding signal (z-score) (Kdn(a2-3)Gal(b1-3)GlcNAc): -0.924
